The match of structure and compound is tentative.

By UniProt entry, the sequences of proteins in these tests, tags left out. Residues count along the entry.
UniProt P25101, 21-427 limits assumed: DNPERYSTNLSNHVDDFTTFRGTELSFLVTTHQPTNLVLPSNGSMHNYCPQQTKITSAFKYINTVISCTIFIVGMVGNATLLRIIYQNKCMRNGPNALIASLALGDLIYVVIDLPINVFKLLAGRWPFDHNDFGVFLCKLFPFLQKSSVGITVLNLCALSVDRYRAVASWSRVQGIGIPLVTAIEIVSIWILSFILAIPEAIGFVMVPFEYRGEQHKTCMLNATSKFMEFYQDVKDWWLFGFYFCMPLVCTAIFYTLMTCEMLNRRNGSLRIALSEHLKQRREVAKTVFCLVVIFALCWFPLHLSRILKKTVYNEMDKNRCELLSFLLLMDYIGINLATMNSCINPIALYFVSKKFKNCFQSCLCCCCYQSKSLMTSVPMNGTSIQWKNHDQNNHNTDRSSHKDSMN
UniProt P24530, 27-442 limits assumed: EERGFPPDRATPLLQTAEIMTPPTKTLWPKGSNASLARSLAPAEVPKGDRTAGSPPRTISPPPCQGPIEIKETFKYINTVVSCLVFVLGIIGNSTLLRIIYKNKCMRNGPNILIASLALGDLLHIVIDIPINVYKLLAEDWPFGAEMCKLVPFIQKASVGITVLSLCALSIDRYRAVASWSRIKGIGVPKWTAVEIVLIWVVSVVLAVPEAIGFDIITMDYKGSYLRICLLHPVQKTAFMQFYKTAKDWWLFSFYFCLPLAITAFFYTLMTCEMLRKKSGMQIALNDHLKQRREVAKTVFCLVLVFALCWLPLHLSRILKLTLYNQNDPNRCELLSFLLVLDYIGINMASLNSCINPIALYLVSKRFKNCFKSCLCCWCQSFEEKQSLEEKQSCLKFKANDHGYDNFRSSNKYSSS

Test [1] has as its target human recombinant ETA receptors (Homo sapiens, UniProt P25101). Nature of the test: Inhibition of [125I]ET-1 binding to membranes from CHO cells carrying human ETA receptors. The conditions noted are these: read-out: IC50 ETA; CHO cell membranes, 8 pM [125I]ET-1, 2 h at 20° C.
In test [2] the target is human recombinant ETB receptors (Homo sapiens, UniProt P24530). Nature of the test: Inhibition of [125I]ET-1 binding to membranes from CHO cells carrying human ETB receptors. The note with it: read-out: IC50 ETB; CHO cell membranes, 8 pM [125I]ET-1, 2 h at 20° C.

Broadly, the IC50 is the midpoint of a concentration-inhibition curve. As for `Cc1ccc(-c2c(NS(=O)(=O)/C=C/c3ccccc3)ncnc2OCCOc2ccc(Cl)cn2)cc1`, the IC50 came out at 52.1 nM in test [1] and 532 nM in test [2].

These data come from patent US6951856B2, “Arylethene-sulfonamides” (Actelion Pharmaceuticals Ltd., priority 2000, dated 2005).
